From PubChem BioAssay AID540276 (National Center for Advancing Translational Sciences (NCATS), 2011)
Screen size: about 300,000 compounds; about 5,400 (1.8%) were called active. Inconclusive results, whose numbers are uncertain, are shown with a selection of clear calls. The call rests on the fitted dose curve; tested in HEK293 cells. Where the call is inconclusive, the potency comes from a doubtful curve fit.

assay: qHTS for inhibitors of binding or entry into cells for Marburg Virus; conditions: Marburg virus pseudotyped entry inhibition, cell reporter; activity change, negative = inhibition: at 37.8 µM (top of the series) unless noted
On the % scale 0 is the no-effect control and ±100 the full control effect; potency means the concentration at half of the fitted maximal effect.

**Q.** With S=c1[nH]nc(C2CCCCC2)n1/N=C/c1ccc(Cl)cc1 as the compound, how does the Potency read?
**A.** inconclusive: 35.5 µM [inhibitor, single point]

**Q.** Which “activity change, negative = inhibition” value does the source give for CCOc1ccccc1NC(=O)c1ccc(S(=O)(=O)N2CCCCC2)cc1 here?
**A.** inactive: -17.8% [at 46.1 µM]

**Q.** With CSc1nnc(NC(=O)c2ccc(S(=O)(=O)N3CCOCC3)cc2)s1 as the compound, how does the “activity change, negative = inhibition” value read?
**A.** inactive: -1.1%

**Q.** Which “activity change, negative = inhibition” value does the source give for CCS(=O)(=O)N1CCN(C(=O)c2ccccc2)CC1 here?
**A.** inactive: -3.43%

**Q.** Which “activity change, negative = inhibition” value does the source give for CC(C)c1ccc2nc(SCC(=O)NCC3CCCO3)c(C#N)cc2c1 (stereo not given) here?
**A.** inactive: -15.5%

**Q.** For Cc1ccc(NCc2ccc(O)c3ncccc23)cc1C, which Potency is on record?
**A.** inconclusive: 15.8 µM [inhibitor, single point]

**Q.** With COc1ccc(OC)c(C(=O)N2CCC(CCC(=O)NC3CC3)CC2)c1 as the compound, how does the Potency read?
**A.** inconclusive: 5.01 µM [inhibitor, single point]

**Q.** For CCCCOc1ccc(-c2csc(N)n2)cc1[N+](=O)[O-], which Potency is on record?
**A.** inconclusive: 0.355 µM [activator, partial curve, poor fit]

**Q.** With c1ccc(C[n+]2c(-c3ccccc3)csc2Nc2ccccc2)cc1 as the compound, how does the “activity change, negative = inhibition” value read?
**A.** inactive: 19%

**Q.** With CCc1nn2cc(C(=O)c3cc(C)ccc3O)cnc2c1-c1ccc(F)cc1 as the compound, how does the Potency read?
**A.** inconclusive: 35.5 µM [inhibitor, partial curve, poor fit]

**Q.** Which Potency does the source give for O=C(Nc1cccc(-c2nc3ccccc3[nH]2)c1)c1ccco1 here?
**A.** inconclusive: 18.3 µM [inhibitor, single point]

**Q.** For CCS(=O)(=O)N1CCN(C(=O)c2ccc(-c3ccccc3)cc2)CC1, which Potency is on record?
**A.** inconclusive: 1.58 µM [inhibitor, partial curve, poor fit]

**Q.** For Cc1nn(C(C)(C)C)c(C)c1/C=N/OC(=O)Nc1ccc(Cl)cc1, which Potency is on record?
**A.** inconclusive: 39.8 µM [inhibitor, partial curve, poor fit]

**Q.** For Cc1cc2oc(=O)cc(Cn3ncc(Cl)c(Cl)c3=O)c2cc1Cl, which Potency is on record?
**A.** inconclusive: 10 µM [inhibitor, partial curve, poor fit]

**Q.** With O=C(NCc1cccnc1)c1ccccc1-c1ccccc1 as the compound, how does the “activity change, negative = inhibition” value read?
**A.** inactive: 0.568% [at 46.1 µM]

**Q.** For CCC(C)(C(=O)Nc1ccccc1C)N(C(=O)CNC(C)=O)c1ccccc1C (stereo not given), which Potency is on record?
**A.** inconclusive: 35.5 µM [activator, partial curve, poor fit]

**Q.** Which “activity change, negative = inhibition” value does the source give for CCOc1ccc(C(=O)NCC2CCN(CC3CCCCC3)CC2)cc1 here?
**A.** inactive: 2.83%

**Q.** With Cc1ccc(C(=O)CSc2nnc(CNc3ccc(C)cc3C)n2Cc2ccco2)cc1 as the compound, how does the Potency read?
**A.** inconclusive: 20.6 µM [inhibitor, partial curve, poor fit]

**Q.** For COc1ccc(C2CC(c3cccs3)=NN2C(=O)CSc2nncs2)cc1OC (stereo not given), which Potency is on record?
**A.** inconclusive: 35.5 µM [inhibitor, partial curve, poor fit]

**Q.** Which “activity change, negative = inhibition” value does the source give for COc1ccc(Nc2cc3n(c(=O)n2)CCc2cc(OC)c(OC)cc2-3)cc1 here?
**A.** inactive: -7.79%

**Q.** With Cc1ccc(C(=O)Nc2ccc(S(=O)(=O)N3CCCC3)cc2)cc1 as the compound, how does the Potency read?
**A.** inconclusive: 12.6 µM [activator, partial curve, poor fit]

**Q.** With COc1cccc(C(=O)Nc2ccc(NC(=O)C3CC3)nc2)c1 as the compound, how does the “activity change, negative = inhibition” value read?
**A.** inactive: -0.275% [at 46.1 µM]

**Q.** Which Potency does the source give for CCC(Oc1ccc(F)cc1)C(=O)Nc1c(C(=O)c2ccc(C)cc2)oc2ccccc12 (stereo not given) here?
**A.** inconclusive: 0.631 µM [inhibitor, full curve, poor fit]

**Q.** For CC(C)(C)c1ccc(C(=O)Nc2ccc(S(=O)(=O)Nc3cnc4ccccc4n3)cc2)cc1, which Potency is on record?
**A.** inconclusive: 25.1 µM [inhibitor, partial curve, poor fit]

**Q.** With CCOc1ccc(NC(=O)c2cccs2)c([N+](=O)[O-])c1 as the compound, how does the Potency read?
**A.** inconclusive: 3.16 µM [inhibitor, partial curve, poor fit]

**Q.** For COC1=CC(=O)CC(C)C12Oc1c(Cl)c(OC)cc(OC)c1C2=O (stereo not given), which Potency is on record?
**A.** inconclusive: 8.2 µM [inhibitor, partial curve]

**Q.** For O=C(Cc1ccc(S(=O)(=O)N2CCOCC2)s1)N(Cc1ccccc1)c1ccccc1, which “activity change, negative = inhibition” value is on record?
**A.** inactive: -18.9%

**Q.** For O=C1CCCC2=C1C(c1cccs1)Nc1ccccc1N2 (stereo not given), which Potency is on record?
**A.** inconclusive: 0.82 µM [inhibitor, partial curve, poor fit]

**Q.** With Cc1nc(NC(=O)C2CC2)sc1C(=O)Nc1ccccc1 as the compound, how does the “activity change, negative = inhibition” value read?
**A.** inactive: -6.2%

**Q.** For O=C(NCCc1ccccc1)C(=O)NCC1CCCN1S(=O)(=O)c1ccccc1 (stereo not given), which Potency is on record?
**A.** active: 11.2 µM

**Q.** For O=C(N/N=C\c1ccc(-c2ccc([N+](=O)[O-])cc2)o1)C1COc2ccccc2O1 (stereo not given), which Potency is on record?
**A.** inconclusive: 6.31 µM [activator, single point]

**Q.** With C[C@@H](C(=O)Nc1ccc2ccccc2c1)[C@H]1C[C@]1(C)[C@H](NC(=O)c1cccnc1)c1ccccc1 as the compound, how does the Potency read?
**A.** inconclusive: 13 µM [inhibitor, partial curve, poor fit]

**Q.** Which Potency does the source give for COC(=O)c1ccc(NC(=S)N2CCC(C(N)=O)CC2)cc1 here?
**A.** inconclusive: 6.31 µM [activator, single point]

**Q.** With CCC1CCCCN1c1nc2c(C=O)c(C)nn2c2ccccc12 (stereo not given) as the compound, how does the Potency read?
**A.** inconclusive: 4.47 µM [inhibitor, partial curve, poor fit]

**Q.** With Cc1c(-n2c(SCC(=O)C(C)(C)C)nc3ccccc3c2=O)c(=O)n(-c2ccccc2)n1C as the compound, how does the Potency read?
**A.** inconclusive: 2.82 µM [inhibitor, single point]

**Q.** For COC(=O)c1ccc(COC(=O)c2cnccn2)cc1, which activity change, negative = inhibition is on record?
**A.** inconclusive: 48.1% [activator] [at 46.1 µM]

**Q.** Which “activity change, negative = inhibition” value does the source give for COc1ccc(Cl)cc1NC(=O)CSc1nnc(Cc2ccc(C)cc2)c(=O)[nH]1 here?
**A.** inactive: -6.28%

**Q.** For Cc1ccc(C(=O)Nc2ccc(NC(=O)c3ccc(C)o3)cc2)o1, which “activity change, negative = inhibition” value is on record?
**A.** inactive: -0.397% [at 46.1 µM]

**Q.** For COc1ccc(Cl)cc1C(Nc1cccnc1)c1ccc2cccnc2c1O (stereo not given), which Potency is on record?
**A.** active: 11.2 µM

**Q.** With COc1ccc(NC2=NCCCS2)cc1OC as the compound, how does the Potency read?
**A.** inconclusive: 7.08 µM [inhibitor, full curve, poor fit]

**Q.** Which “activity change, negative = inhibition” value does the source give for Cc1ccc(S(=O)(=O)N2CCC(C(=O)N3CCc4ccccc43)CC2)cc1 here?
**A.** inactive: -0.908%

**Q.** For CCOc1ccc(N2CC(C(=O)Nc3ccc(S(=O)(=O)N4CCCCC4)cc3)CC2=O)cc1 (stereo not given), which Potency is on record?
**A.** inconclusive: 20 µM [inhibitor, partial curve, poor fit]

**Q.** For O=C(/C=C/c1c[nH]c2ccccc12)c1cccc2ccccc12, which Potency is on record?
**A.** inconclusive: 35.5 µM [inhibitor, single point]

**Q.** With O=C(c1cc(C(=O)NCc2ccccc2)c(=O)n(Cc2ccccc2)c1)c1cc(Br)ccc1O as the compound, how does the Potency read?
**A.** inconclusive: 16.4 µM [inhibitor, single point]

**Q.** Which “activity change, negative = inhibition” value does the source give for O=S(=O)(Nc1ccc(Br)cn1)c1ccc2ccccc2c1 here?
**A.** inactive: 3.53% [at 46.1 µM]

**Q.** With Nc1ccccc1SCC(=O)Nc1nc(-c2ccccc2)cs1 as the compound, how does the Potency read?
**A.** inconclusive: 3.16 µM [inhibitor, single point]

**Q.** For OCCNCCCCOc1ccccc1F, which Potency is on record?
**A.** inconclusive: 1.16 µM [activator, single point]

**Q.** Which Potency does the source give for COc1c(O)ccc(/C=N/NC(=O)c2ccc3c(c2)OCCO3)c1[N+](=O)[O-] here?
**A.** inconclusive: 22.4 µM [inhibitor, single point]

**Q.** Which Potency does the source give for N#C/C(=C\c1c(N2CCC(C(N)=O)CC2)nc2ccccn2c1=O)C(=O)NCc1ccco1 here?
**A.** inconclusive: 3.55 µM [activator, single point]

**Q.** For CC(NS(=O)(=O)c1ccc2c(c1)OCCO2)c1ccccc1 (stereo not given), which Potency is on record?
**A.** inconclusive: 7.94 µM [activator, partial curve]

**Q.** With CCC(=O)Nc1nc2ccccc2n1Cc1ccc(Cl)cc1 as the compound, how does the Potency read?
**A.** active: 11.6 µM

**Q.** With COc1ccc(CNC(=O)CCc2c(C)c3cc4c(C)coc4c(C)c3oc2=O)cc1OC as the compound, how does the “activity change, negative = inhibition” value read?
**A.** inactive: 2.95% [at 46.1 µM]

**Q.** Which “activity change, negative = inhibition” value does the source give for CCOC(=O)C1=C(N)N(c2ccccc2)C2=C(C(=O)CCC2)C1c1cccnc1 (stereo not given) here?
**A.** inactive: 14.4%

**Q.** With Cc1ccc(C)c(Sc2ccc(NC(=O)CCl)cc2)c1 as the compound, how does the Potency read?
**A.** inconclusive: 25.9 µM [inhibitor, single point]

**Q.** For COc1ccc(Cl)cc1NC(=O)N1CCN(CCc2ccccc2)CC1, which “activity change, negative = inhibition” value is on record?
**A.** inactive: 4.96%

**Q.** Which Potency does the source give for O=C1C(=O)N(c2ccccc2)P(=O)(N(CCCl)CCCl)N1c1ccccc1 here?
**A.** inconclusive: 12.6 µM [inhibitor, single point]

**Q.** For CCCCN(C)CCNC(=O)c1cc2c(=O)n(C)c3ccccc3c2n1C, which “activity change, negative = inhibition” value is on record?
**A.** inactive: -26.3% [at 46.1 µM]

**Q.** Which “activity change, negative = inhibition” value does the source give for CC1CCCC(C)N1/N=C/c1ccc([N+](=O)[O-])cc1 (stereo not given) here?
**A.** inactive: -1.3% [at 46.1 µM]

**Q.** With CCn1ncc(Br)c1C(=O)Nc1cccc(F)c1 as the compound, how does the “activity change, negative = inhibition” value read?
**A.** inactive: 2.18% [at 46.1 µM]

**Q.** For NC(=S)NN=Cc1nccc2ccccc12, which Potency is on record?
**A.** inconclusive: 1.41 µM [inhibitor, full curve, poor fit]

**Q.** For COc1ccccc1/C=N/NC(=O)c1ccc(NC(=O)c2ccccc2Br)cc1, which “activity change, negative = inhibition” value is on record?
**A.** inactive: 7.15%

**Q.** For Cc1ccc2cc(CN(Cc3ccccc3)Cc3nnnn3C3CCCC3)c(=O)[nH]c2c1, which Potency is on record?
**A.** inconclusive: 18.3 µM [inhibitor, partial curve, poor fit]

**Q.** Which Potency does the source give for O=C(CSc1nnc(Nc2ccccc2)s1)Nc1ccc(S(=O)(=O)N2CCOCC2)cc1 here?
**A.** inconclusive: 11.2 µM [inhibitor, single point]

**Q.** Which Potency does the source give for COc1cc(C2c3cc4c(cc3OC(NCCc3ccccc3)C2C)OCO4)cc(OC)c1OC (stereo not given) here?
**A.** inconclusive: 0.631 µM [inhibitor, full curve, poor fit]

**Q.** For Cc1cc(C)n2nc(SCC(=O)N(Cc3ccccc3)C3CCS(=O)(=O)C3)nc2n1 (stereo not given), which Potency is on record?
**A.** inconclusive: 10 µM [inhibitor, partial curve, poor fit]

**Q.** For O=C1S/C(=C\C=C\c2ccco2)C(=O)N1c1ccccc1, which Potency is on record?
**A.** inconclusive: 7.31 µM [activator, partial curve, poor fit]

**Q.** With CC(C)(C)c1ccc(Cn2nnc3c(=O)[nH]c(C4CCN(C(=O)Cc5cccs5)CC4)nc32)cc1 as the compound, how does the Potency read?
**A.** active: 8.2 µM

**Q.** With O=C(Cn1ncc2c3ccccc3n(Cc3cccc(Cl)c3)c2c1=O)Nc1ccc(F)cc1F as the compound, how does the “activity change, negative = inhibition” value read?
**A.** inactive: 0.297% [at 46.1 µM]

**Q.** With O=C(Nc1ccccc1)N1CCCCC1c1cccnc1 (stereo not given) as the compound, how does the “activity change, negative = inhibition” value read?
**A.** inactive: -12.8% [at 46.1 µM]

**Q.** With c1ccc(CN=C2NN=C(c3cc4ccccc4o3)CS2)cc1 as the compound, how does the Potency read?
**A.** inconclusive: 35.5 µM [activator, single point]
